# Primary screen of a compound library

The chains behind the UniProt entries cited, without tags or fusion partners. Residues count along the entry.
UniProt Q8IDJ8, 1-583: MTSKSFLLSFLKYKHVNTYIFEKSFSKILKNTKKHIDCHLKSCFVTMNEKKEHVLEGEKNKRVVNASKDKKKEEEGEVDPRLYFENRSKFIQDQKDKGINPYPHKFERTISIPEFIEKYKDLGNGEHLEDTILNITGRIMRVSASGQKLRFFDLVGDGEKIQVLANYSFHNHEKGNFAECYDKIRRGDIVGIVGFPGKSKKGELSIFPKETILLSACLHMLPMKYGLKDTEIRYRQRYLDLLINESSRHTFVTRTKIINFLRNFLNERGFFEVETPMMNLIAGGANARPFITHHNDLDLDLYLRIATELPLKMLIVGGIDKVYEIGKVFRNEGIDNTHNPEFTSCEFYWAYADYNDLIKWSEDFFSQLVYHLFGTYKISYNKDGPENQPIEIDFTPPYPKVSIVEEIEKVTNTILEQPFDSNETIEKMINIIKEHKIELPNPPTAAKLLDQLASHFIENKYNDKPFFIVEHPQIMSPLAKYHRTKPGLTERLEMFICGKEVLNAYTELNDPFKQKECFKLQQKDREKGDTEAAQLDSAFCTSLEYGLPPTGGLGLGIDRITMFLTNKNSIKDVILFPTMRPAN
UniProt P9WPC5, whole entry: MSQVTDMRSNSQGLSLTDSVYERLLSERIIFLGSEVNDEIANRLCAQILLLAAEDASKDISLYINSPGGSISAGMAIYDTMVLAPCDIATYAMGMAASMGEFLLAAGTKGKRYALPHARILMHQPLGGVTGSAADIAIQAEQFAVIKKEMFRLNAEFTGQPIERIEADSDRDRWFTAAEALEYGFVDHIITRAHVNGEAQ
UniProt P9WPC3, whole entry partner: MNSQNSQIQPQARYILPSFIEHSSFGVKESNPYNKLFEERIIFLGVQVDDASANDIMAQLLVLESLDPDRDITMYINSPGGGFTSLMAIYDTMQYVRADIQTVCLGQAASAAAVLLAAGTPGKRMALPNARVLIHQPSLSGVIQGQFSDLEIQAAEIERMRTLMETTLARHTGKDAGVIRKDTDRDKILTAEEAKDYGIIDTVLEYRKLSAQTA
UniProt P9WFT3, whole entry: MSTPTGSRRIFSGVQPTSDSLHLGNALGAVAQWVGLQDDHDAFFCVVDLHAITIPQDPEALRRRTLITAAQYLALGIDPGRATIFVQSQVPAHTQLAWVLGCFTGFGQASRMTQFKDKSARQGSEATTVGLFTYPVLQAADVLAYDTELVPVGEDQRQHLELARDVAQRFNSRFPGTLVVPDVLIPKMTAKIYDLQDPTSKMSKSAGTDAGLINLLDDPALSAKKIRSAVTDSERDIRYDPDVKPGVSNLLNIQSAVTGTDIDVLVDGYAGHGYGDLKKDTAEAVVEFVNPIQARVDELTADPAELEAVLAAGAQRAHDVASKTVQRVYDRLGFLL

From ChEMBL document CHEMBL3988442, “University of Dundee, Small-Polar-MMV Screening Library” (2021).

The filed quantity is “Percent Effect” (%). The record does not define 0% and 100%; most values in the screen are far below 50% and negative numbers occur (in some assays of this library far below -100). The compounds are a random part of those screened. A dash means the value is not listed here; it may have been measured.

A: 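Enzyme assay of the cytosolic lysyl-tRNA synthetase in 384-well plates, read by luminescence. Target: Lysine-tRNA ligase, Plasmodium falciparum 3D7 (UniProt Q8IDJ8). Tested at 30 µM. Higher reads as stronger inhibition, judged from the few compounds that gave an IC50. About 69,000 compounds were tested under these conditions; 0.071% (about 49) showed 50% or more at least once.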
B: 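ClpP1P2, Mycobacterium tuberculosis (UniProt P9WPC5 and UniProt P9WPC3). Protease assay of ClpP1P2, read by the AMC dye that it sets free. Tested at 50 µM. Direction is inferred from only a few compounds that gave an IC50; most scored high, so higher reads as stronger inhibition. Most other retested compounds had strongly negative values. Size under these conditions: about 69,000 compounds, about 10 of them at 50% or above in at least one test.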
C: 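Enzyme assay of tryptophanyl-tRNA synthetase; the read-out is not stated. Target: Tryptophan-tRNA ligase, Mycobacterium tuberculosis (UniProt P9WFT3). Tested at 10 µM. Direction is not recorded; retested compounds ran higher, which suggests that high means inhibition. About 65,000 compounds were tested under these conditions; 0.098% (about 64) showed 50% or more at least once.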

Compound | A | B | C
O=C(Nc1cnccn1)[C@@H]1COC[C@H]2CN(c3ncc(F)cn3)C[C@H]21 | 1.835% | -5.75% | -1.453%
COc1ncc(C(=O)N2CCC3(CC2)C(=O)Nc2ccccc23)cn1 | 2.509% | -6.795% | -7.392%
CC(C)OCC(=O)N1CCCN(Cc2ccc(C#N)cc2)CC1 | -1.273% | 8.096% | 2.516%
Cc1ccoc1C(=O)N1CCC(n2cc(-c3ccsc3)nn2)CC1 | 4.238% | -9.813% | -1.49%
CCCc1cc(NC(=O)c2ccc(Cl)c(N3CCNC3=O)c2)n[nH]1 | 2.305% | -2.858% | 0.5201%
CCc1ccc(C(=O)N2CCN(CC(O)c3ccccc3)CC2)o1 (stereo unspecified) | -2.518% | -12.29% | -6.434%
Cc1ccnc(NCc2cn3nc(C)sc3n2)n1 | 4.783% | -6.751% | -8.941%
CCc1ncnc2c1CCN(C(=O)c1cccn1C)CC2 | -1.744% | 20.77% | 0.834%
COc1cc(C)sc1C(=O)N1CCC(Nc2cccnc2)CC1 | 3.099% | -3.922% | -2.549%
Cc1cc(C)n(C2CCCN(C(=O)Cc3ccc(C#N)cc3)C2)n1 (stereo unspecified) | 0.934% | -16.46% | -6.189%
CCC(=O)N1CCN(C)C(=O)C(Cc2ccccc2-c2cccs2)C1 (stereo unspecified) | 2.517% | -12.43% | 0.2342%
CS(=O)(=O)NCCn1ccc(-c2cccs2)n1 | 4.698% | -13.77% | 1.814%
COc1ccc(CN2Cc3nnn(C)c3C(COCCN(C)C)C2)cc1 (stereo unspecified) | 1.088% | -15.01% | -3.358%
COc1ccc(C2CCCN2S(=O)(=O)N(C)CC(C)C)cc1 (stereo unspecified) | -1.302% | -5.535% | -5.498%
O=C(C1CC(c2ccccc2)=NO1)N1CCCCc2ccccc21 (stereo unspecified) | 3.288% | -12.72% | 0.2721%
c1ccc(N2CCOCC3(CCCN(c4nccs4)C3)C2)nc1 (stereo unspecified) | 3.522% | 3.663% | 2.415%
COCc1ncn2c1CN(C(=O)c1cnc3ccccc3c1)CC2 | 6.806% | -2.425% | -2.995%
COCCn1c(C(=O)NC(C(N)=O)C(C)C)cc2ccccc21 (stereo unspecified) | 3.991% | 2.293% | -2.216%
CC(=O)NCCNC(=O)c1cc(Br)c2c(c1)OCCO2 | 2.817% | -5.729% | -3.762%
CN(C)C(=O)Cn1c2c(ccc1=O)CC(NCc1cccnc1)CC2 (stereo unspecified) | 14.38% | 1.306% | 1.187%
CCC1CN(c2cnn(C)c(=O)c2Br)CCO1 (stereo unspecified) | 2.88% | 9.841% | -3.818%
Fc1cccc(F)c1Cn1c(C2CCCNC2)cc2cccnc21 (stereo unspecified) | 5.321% | -10.16% | -3.166%
CNc1nc2c(s1)C(c1ccc(Cl)cc1Cl)CC(=O)N2 (stereo unspecified) | 47.4% | -38.37% | 9.085%
CC(C)c1cc(C(=O)N2C[C@@H](C)[C@](O)(C3CC3)C2)[nH]n1 | 1.867% | 9.1% | -3.772%
Cc1ccnc(CC(C)N(C)c2cc(C3CCNCC3)nc(C)n2)c1 (stereo unspecified) | 6.322% | 4.308% | -11.12%
Cc1cccc2c1cnn2CCCNC(=O)CCCC(=O)O | 7.529% | -3.912% | 4.722%
Cc1cc(OCC(=O)N2CCCC2c2noc(C)n2)no1 (stereo unspecified) | -0.5969% | -18.57% | -6.615%
CNC(=O)[C@H]1C[C@@H]2CN(C(=O)c3ccncc3)C[C@@H]2N1S(C)(=O)=O | 0.3774% | 1.793% | 6.649%
CCC(C)(COc1ncccc1Cl)NCC(=O)NC1CCCCC1 (stereo unspecified) | 2.883% | -1.524% | 2.039%
COC1CCN(C(=O)Cn2cccc(C(F)(F)F)c2=O)C1 (stereo unspecified) | 2.212% | -8.301% | -2.498%
CCn1nccc1C(=O)N1CCCCC1CCc1ccc(O)cc1 (stereo unspecified) | 2.216% | 0.4962% | 5.204%
Cc1nc(C2CCCN(C(=O)c3ccoc3)C2)no1 (stereo unspecified) | -1.849% | -18.22% | -3.123%
CN(Cc1cccc(C#N)c1)Cn1nc(C(C)(C)C)ccc1=O | 3.719% | -1.036% | 0.9497%
O[C@H]1[C@H](n2cc(-c3cncnc3)nn2)c2ccccc2C12CCNCC2 | 1.017% | -3.834% | -1.939%
COc1ccc(C)cc1C(=O)N1C[C@@H](CN(C)CCO)[C@@H](CO)C1 | 2.023% | -5.532% | 0%
Cc1noc(CNc2cccc(C(=O)N3CCCC(O)C3)c2)n1 (stereo unspecified) | 1.838% | -0.7949% | 0.4471%
CC(NC(=O)NCc1ccccn1)c1cccs1 (stereo unspecified) | 3.539% | -11.89% | 3.52%
CCNC(=O)[C@@H]1C[C@@H](NC(=O)c2cccnc2O)CN1Cc1ccsc1 | 1.824% | 3.787% | 3.592%
CN(Cc1ccsc1)C(=O)c1cc(S(=O)(=O)N(C)C)ccc1Cl | 0.1471% | -2.911% | -0.677%
CN(Cc1n[nH]c2c1CCCC2)c1nc2c(c(=O)[nH]1)CCNCC2 | -0.1508% | -14.29% | 0.3221%
Cc1nc(CN2C(=O)CC[C@@H]3[C@H]2CCN3C(=O)c2ccc[nH]2)cs1 | -0.3715% | -12.11% | -2.387%
CNC(=O)c1cnn2c(C3CCCN3C)ccnc12 (stereo unspecified) | -2.166% | -15.87% | 15.22%
COCCC1(CO)CCCN(Cc2ccncc2)C1 (stereo unspecified) | 2.583% | -6.074% | -1.614%
Cc1ccc(C(=O)N2CCOC(c3nc(-c4ncccn4)no3)C2)cc1 (stereo unspecified) | 5.228% | -2.149% | -

Some entries from above, unchanged:

{"compound": "CCNC(=O)[C@@H]1C[C@@H](NC(=O)c2cccnc2O)CN1Cc1ccsc1", "A": 1.824, "B": 3.787, "C": 3.592}
{"compound": "Cc1ccnc(CC(C)N(C)c2cc(C3CCNCC3)nc(C)n2)c1", "stereo": "stereo unspecified", "A": 6.322, "B": 4.308, "C": -11.12}
{"compound": "COc1ccc(C)cc1C(=O)N1C[C@@H](CN(C)CCO)[C@@H](CO)C1", "A": 2.023, "B": -5.532, "C": 0}
{"compound": "Cc1nc(C2CCCN(C(=O)c3ccoc3)C2)no1", "stereo": "stereo unspecified", "A": -1.849, "B": -18.22, "C": -3.123}